PubChem BioAssay AID504784 – Drosophila RNAi Screening Center – 2011
In all, the deposit lists about 17,000 reagents; below is an unselected part of those that have a named target and a result. 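Each column is one replicate's B-score; the combined score over replicates was not deposited, so single values may mislead.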 The numbers tell different reagents against one gene apart. A plus sign joins genes that one reagent is predicted to hit. Reagent sequences are not shown.

- Screen: 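Fly genes whose silencing alters how much lipid cells keep in droplets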 (primary screen)
- System: Drosophila Kc167 embryonic cells
- Knock-down reagent: long dsRNA against Drosophila genes, about 250 ng dsRNA per well
- Timing: 4 days
- Challenge: cells fed 400 µM oleic acid bound to BSA
- Detection: 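Cells imaged and segmented; ratio of lipid droplet area to nuclear area, log-transformed, then normalised as a B-score over the screen; higher means more stored lipid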
- Reading the numbers: droplet/nuclear area B-score: higher = more stored lipid (overstorage)

The first 7 entries, to show the layout:
gene knocked down,reagent,"droplet/nuclear area B-score, replicate 1","droplet/nuclear area B-score, replicate 2","droplet/nuclear area B-score, replicate 3"
Odc1 (GeneID 35766),1,-1.3,-0.585,
CG8172 (GeneID 35905),1,0.895,-0.0882,
CG8172 (GeneID 35905),2,6.52,-0.776,
CG9380 (GeneID 38011),1,-0.365,2.12,
Nf-YA (GeneID 39091),1,-0.296,0.036,
Nf-YA (GeneID 39091),2,0.378,-0.674,
CG5715 (GeneID 42895),1,-0.0183,-2.05,

The list itself, from the start:
gene knocked down,reagent,"droplet/nuclear area B-score, replicate 1","droplet/nuclear area B-score, replicate 2","droplet/nuclear area B-score, replicate 3"
Odc1 (GeneID 35766),1,-1.3,-0.585,
CG8172 (GeneID 35905),1,0.895,-0.0882,
CG8172 (GeneID 35905),2,6.52,-0.776,
CG9380 (GeneID 38011),1,-0.365,2.12,
Nf-YA (GeneID 39091),1,-0.296,0.036,
Nf-YA (GeneID 39091),2,0.378,-0.674,
CG5715 (GeneID 42895),1,-0.0183,-2.05,
CG8611 (GeneID 32725),1,0.889,0.712,
hoka (GeneID 38588),1,-2.05,-1.13,
CG11262 (GeneID 39471),1,0.644,1.64,
CG14907 + Mettl4,1,-1.16,0.00648,
CG14907 + Mettl4,2,0.149,-0.312,
tub (GeneID 40554),1,0.0599,0.732,-0.903
tub (GeneID 40554),2,-2.48,1.23,
stum (GeneID 37473),1,-0.0456,0.0144,
stum (GeneID 37473),2,-1.75,0.501,
Jon74E (GeneID 39959),1,-0.501,-0.375,
CG5516 (GeneID 41940),1,0.00177,-0.0832,
CG5516 (GeneID 41940),2,0.413,1.56,
su(Hw) (GeneID 41740),1,-0.401,-7.3,
Pfk (GeneID 36060),1,-0.553,0.148,
CG13679 (GeneID 38919),1,-0.0647,-0.869,4.54
CG13679 (GeneID 38919),2,3.82,-0.477,
CG9643 (GeneID 33504),1,-1.02,-0.401,
CG3163 (GeneID 37836),1,0.516,-0.0832,
5-HT2A (GeneID 40575),1,0.632,1.76,-0.373
Itpr (GeneID 40664),1,2.02,0.48,
CG3748 (GeneID 34252),1,0.763,0.714,
CG14391 (GeneID 41567),1,-0.362,1.39,
T3dh + pgc,1,-0.0196,1.19,
CG4658 (GeneID 34325),1,-0.255,0.584,
CG43322 (GeneID 33984),1,0.257,0.761,
CG4364 (GeneID 34287),1,0.881,1.47,
Mics1 (GeneID 40898),1,1.03,0.576,
Rev1 (GeneID 38079),1,0.575,0.362,
nudC (GeneID 39879),1,-1.83,-2.23,
nudC (GeneID 39879),2,-1.53,-0.0473,
CG6380 (GeneID 35040),1,-0.0364,-0.636,
PpD3 (GeneID 49779),1,-0.0703,-0.103,
okr (GeneID 33507),1,-0.151,-0.0728,
Ttc1 (GeneID 41993),1,0.11,0.289,
Ttc1 (GeneID 41993),2,1.74,,
Sras (GeneID 44002),1,-1.57,-0.92,
CG13407 (GeneID 42599),1,0.0583,-0.177,
CG5708 (GeneID 34361),1,0.023,-0.00477,
Tmtc4 (GeneID 41867),1,0.876,0.205,
onecut (GeneID 45816),1,-1.46,0.685,
CG32202 (GeneID 326199),1,-2.29,-1.73,
CG3511 (GeneID 37926),1,-2.25,-1.3,
Rim2 (GeneID 33350),1,-0.422,0.466,
Rim2 (GeneID 33350),2,0.192,-0.0438,
CG6083 (GeneID 39305),1,1.91,-0.188,
Tsp96F (GeneID 43127),1,-2,0.681,
Ugt37D1 (GeneID 53511),1,-0.698,-0.0512,
c-cup (GeneID 33360),1,0.0375,-0.0347,
Taz (GeneID 36405),1,-0.0471,0.431,-1.94
Taz (GeneID 36405),2,-0.456,-0.928,
Prp16 (GeneID 32373),1,-0.254,-1.69,-1.52
Prp16 (GeneID 32373),2,0.697,1.77,
Ppa (GeneID 37602),1,-2.7,1.11,
Osi12 (GeneID 40766),1,0.0706,0.0633,
CG14013 (GeneID 33786),1,0.89,-0.811,
CG30376 (GeneID 246576),1,-1.35,0.0647,
CG30060 (GeneID 246426),1,-0.604,1.55,
CG13258 (GeneID 34959),1,1.65,1.07,
Cpr50Ca (GeneID 36523),1,0.16,-0.372,
Cpr50Ca (GeneID 36523),2,-0.962,-0.00126,
Cpr50Ca (GeneID 36523),3,-0.847,-0.749,
Agpat3 (GeneID 39820),1,0.082,0.16,-2.25
etaTry (GeneID 36217),1,-0.926,-0.19,
CG32568 (GeneID 32659),1,-0.308,-0.516,
CG31704 (GeneID 318906),1,0.435,0.448,
dcma (GeneID 5740672),1,0.501,-0.339,
dcma (GeneID 5740672),2,0.0192,0.487,
alpha4GT1 (GeneID 33512),1,0.273,-0.539,
CG4866 (GeneID 36976),1,-1.59,-0.0326,
dnd (GeneID 42580),1,-1.13,-0.587,
pad (GeneID 41981),1,-0.0893,-0.638,
CG12986 (GeneID 32759),1,0.611,3.44,
CG7332 (GeneID 32885),1,1.56,-0.0653,
CG15337 (GeneID 31748),1,0.461,0.122,
CG15337 (GeneID 31748),2,-1.09,0.0017,
Nil (GeneID 43185),1,-1.49,-0.26,
Nil (GeneID 43185),2,0.0138,0.581,
